# In publication PMC8000408, “Inhibition of NUPR1–Karyopherin β1 Binding Increases Anticancer Drug Sensitivity” (International Journal of Molecular Sciences, 2021):
# The chains behind the UniProt entries cited, without tags or fusion partners.
# UniProt Q14974: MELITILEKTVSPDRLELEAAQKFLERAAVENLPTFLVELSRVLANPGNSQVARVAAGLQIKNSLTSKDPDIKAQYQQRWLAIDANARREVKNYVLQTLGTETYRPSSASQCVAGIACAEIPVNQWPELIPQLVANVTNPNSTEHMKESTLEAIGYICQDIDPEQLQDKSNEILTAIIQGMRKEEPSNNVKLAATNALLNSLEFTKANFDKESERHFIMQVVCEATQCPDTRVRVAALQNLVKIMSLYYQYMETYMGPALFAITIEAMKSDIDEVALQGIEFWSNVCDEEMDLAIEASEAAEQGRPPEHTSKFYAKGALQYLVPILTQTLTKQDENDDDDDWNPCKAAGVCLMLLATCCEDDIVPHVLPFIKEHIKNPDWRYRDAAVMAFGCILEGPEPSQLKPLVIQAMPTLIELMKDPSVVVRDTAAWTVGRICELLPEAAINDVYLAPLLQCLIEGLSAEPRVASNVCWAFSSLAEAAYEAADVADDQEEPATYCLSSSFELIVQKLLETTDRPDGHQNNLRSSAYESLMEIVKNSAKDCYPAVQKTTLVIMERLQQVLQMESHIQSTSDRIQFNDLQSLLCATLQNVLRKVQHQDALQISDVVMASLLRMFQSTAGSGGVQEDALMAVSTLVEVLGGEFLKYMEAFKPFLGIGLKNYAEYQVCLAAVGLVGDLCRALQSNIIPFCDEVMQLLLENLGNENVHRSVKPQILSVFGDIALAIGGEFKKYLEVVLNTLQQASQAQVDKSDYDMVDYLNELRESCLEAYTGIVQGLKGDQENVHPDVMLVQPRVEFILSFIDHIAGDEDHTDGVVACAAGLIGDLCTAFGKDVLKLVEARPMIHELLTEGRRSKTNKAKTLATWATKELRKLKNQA
# No constants are given. Whether binding was seen depends on the method and setting. For some assays here: Binding seen in cells or lysates may run through a third protein. Some binding calls cover weakened binding; strength is not graded here. For some assays here: Tags and fused reporters may be left off the sequences shown.
# T1: GST-NUPR1 (nuclear protein-1) recombinant protein (UniProt O60356)
# T1 sequence: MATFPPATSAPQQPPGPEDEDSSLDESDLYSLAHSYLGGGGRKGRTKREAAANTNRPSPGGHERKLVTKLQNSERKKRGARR
# What was measured:
# [1] = biological target: T1, GST-NUPR1 (nuclear protein-1) recombinant protein; assay: single-molecule pull-down (TIRF microscopy); NUPR1 immobilised on the imaging surface; 5 nM Cy5-labeled KPNB1 or Cy5-labeled KPNA, incubated with various concentrations of ATZ-502 for 30 min (on ice, per the legend); 633-nm excitation, ambient temperature; both purified
# [2] = biological target: KPNB1 (in the immunoprecipitation) (UniProt Q14974); assay: co-IP; KPNB1 antibody on protein G magnetic beads; KPNB1-NUPR1 complex bound at 4 °C overnight, with ATZ-502 (1 µM) as inhibitor; eluted with RIPA buffer, immunoblot; source of the proteins not stated
binding [1],binding [2],Molecule
binds,,Cy5-labeled karyopherin β1 (KPNB1) (from UniProt Q14974 1-876)
,binds,"GST-NUPR1 (nuclear protein-1) recombinant protein (natural protein, UniProt O60356 1-82, looked up, Nuclear protein-1 (NUPR1, p8/Com-1); Held on the PEG-coated quartz surface through neutravidin and a biotin-conjugated GST-tag antibody; No catalogue number is printed; also called p8; Com-1; source: bought: NOVUS Biologicals (recombinant protein)) MATFPPATSAPQQPPGPEDEDSSLDESDLYSLAHSYLGGGGRKGRTKREAAANTNRPSPGGHERKLVTKLQNSERKKRGARR"
